Assay results as given in PubChem BioAssay AID493014 (National Center for Advancing Translational Sciences (NCATS), 2011).
The whole screen tested about 340,000 compounds, of which about 170 (0.05%) were called active. This list was built around the results that the source calls inconclusive (neither active nor inactive); the mix of calls is not that of the screen. The call rests on the fitted dose curve; in most records, active means well fitted inhibition curve with a large enough effect in the signal ratio, with a control signal flat (not every such curve was filed as active); inconclusive means small, poorly fitted or top-dose-only effect, or effect the other way, or a change in a side signal; inactive means flat fitted curve, though single readings scatter; the % refers to the signal ratio. A potency beside an inconclusive call is a rough fit, not a confirmed value.
Potency means the concentration at half of the fitted maximal effect.

Assay: qHTS Assay to Find Inhibitors of Chronic Active B-Cell Receptor Signaling;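 on activity change, negative = inhibition: plate controls were basal doxycycline-induced cells for no effect and cells given 10 µM MG132 for full effect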
Details: ABC-DLBCL IkBa-CBG/CBR reporter, luminescence ratio (green luciferase fused to IkBa over red control in TMD8 lymphoma cells), 4 h; activity change, negative = inhibition: at 46.1 µM (top of the series)
How it was run: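 Doxycycline induced both beetle luciferases in TMD8 lymphoma cells; IKK-driven degradation limits the IkappaBalpha-fused green signal, while red luminescence normalises for cell number and nonspecific effects. Compounds tested up to 46 uM, 4 hrs.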
For `CCn1c(SCc2ccc(C#N)cc2)nnc1-c1cccc(Cl)c1`, the “activity change, negative = inhibition” value was inactive: 9.04%. For `O=C1CN(c2nc(-c3cccs3)nc3sc4c(c23)CCCC4)CCN1`, the activity change, negative = inhibition was inconclusive: -8.83%. For `CNC(=O)c1cc(C(=O)c2ccc(F)cc2C(F)(F)F)c[nH]1`, the “activity change, negative = inhibition” value was inactive: -7.44%. With `Cc1cccc(-n2cc(-c3ccccc3)c3c(NC(C)C)ncnc32)c1` the activity change, negative = inhibition was inconclusive: 16.5%. For `Cc1ccc(C(=O)c2c(C)oc3c2C(=O)C(=O)c2ccccc2-3)cc1`, the Potency was inconclusive: 20 µM [falling, single point]. With `COc1cc2c(cc1OC)CN(S(=O)(=O)c1ccccc1F)CC2` the activity change, negative = inhibition was inconclusive: -7.6%. In the case of `CCc1cccc(CC)c1NC(=O)COC(=O)/C(C#N)=C/c1ccc(OC)cc1`, the Potency is reported as inconclusive: 29.1 µM [falling, single point]. With `CCCCCCC(=O)O` the “activity change, negative = inhibition” value was inactive: 3.94%. In the case of `O=C(O)CCCN1C(=O)/C(=C\c2ccccc2OCc2ccccc2)SC1=S`, the Potency is reported as inconclusive: 2.24 µM [cytotoxic, full curve]. In the case of `COc1ccc(Cn2nnnc2CN2CCN(c3ccc(OC)cc3)CC2)cc1`, the Potency is reported as inconclusive: 35.5 µM [falling, single point]. For `Cc1cc(C2=NNC(=NC3CC3)SC2)c(C)n1Cc1ccco1`, the “activity change, negative = inhibition” value was inactive: -7.13%. With `O=S(=O)(Nc1nc2ccccc2nc1NCc1ccco1)c1ccc(Cl)cc1` the activity change, negative = inhibition was inconclusive: 4.49%. In the case of `CCCN(CCC)S(=O)(=O)c1ccc(Cl)c([N+](=O)[O-])c1`, the activity change, negative = inhibition is reported as inconclusive: 10.3%. With `Cc1ccccc1C(=O)Nc1cccc(NC(=S)NC(=O)c2cccs2)c1` the Potency was inconclusive: 3.55 µM [falling, partial curve, poor fit]. In the case of `CCCCC(NC(=O)Cc1c(C)c2cc3c(-c4ccccc4)coc3c(C)c2oc1=O)C(=O)O` (stereo not drawn), the “activity change, negative = inhibition” value is reported as inactive: -10.6%. For `COC(=O)c1c(NC(=O)C(Cl)Cl)sc2c1C(C(=O)OC)CC2` (stereo not drawn), the activity change, negative = inhibition was inconclusive: 9.33%. In the case of `CC(C)(C)c1cc(OS(C)(=O)=O)ccc1O`, the activity change, negative = inhibition is reported as inconclusive: 15%. In the case of `Nc1cc(Cl)ccc1C(=O)OCC(=O)NC1CCCCCCC1`, the activity change, negative = inhibition is reported as inconclusive: 1.25%. In the case of `CCCc1cc(C(=O)NC2CCCC2)no1`, the Potency is reported as inconclusive: 23.1 µM [falling, partial curve, poor fit]. With `COc1ccc(-c2c(C)cc3oc(=O)cc(-c4ccccc4)c3c2C)cc1C=O` the activity change, negative = inhibition was inconclusive: -1.43%. For `O=C(NC(=S)Nc1c(Cl)ccc2nsnc12)c1ccccc1F`, the “activity change, negative = inhibition” value was inactive: 6.42%. In the case of `CN(C)CCNC(=O)C1CCCNC1=O` (stereo not drawn), the “activity change, negative = inhibition” value is reported as inactive: -3.03%. For `COc1ccccc1N1CCN(CC(O)COc2ccc(C)c(C)c2)CC1` (stereo not drawn), the “activity change, negative = inhibition” value was inactive: -2.52%. With `O=C(NCC(c1ccco1)N1CCc2ccccc2C1)c1ccc(Br)cc1` (stereo not drawn) the “activity change, negative = inhibition” value was inactive: -0.105%. With `Cc1nn(-c2ccccc2)c(C)c1/C=N/Nc1nc2ccccc2[nH]1` the “activity change, negative = inhibition” value was inactive: -26.4%. For `CCOC(=O)C1=C(c2ccccc2)N=c2s/c(=C\c3cccc(O)c3)c(=O)n2C1c1cccs1` (stereo not drawn), the activity change, negative = inhibition was inconclusive: 18%. In the case of `O=C(Nc1cccnc1)c1cc(-c2ccco2)on1`, the Potency is reported as inconclusive: 22.4 µM [falling, partial curve]. With `COc1ccc(OCCCC(=O)Nc2cccc(C(C)=O)c2)cc1` the activity change, negative = inhibition was inconclusive: -1.77%. In the case of `COc1ccc(/C=C2\SC(=O)N(CC(=O)NCCC(C)C)C2=O)cc1OC`, the activity change, negative = inhibition is reported as inconclusive: 8.68%. In the case of `CC(C)OC(=O)CC1C(=O)NCCN1C(=S)NC(=O)c1ccc(F)cc1` (stereo not drawn), the “activity change, negative = inhibition” value is reported as inactive: 0.742%. For `COc1ccc(C(O)C(CN2CCOCC2)c2ccccc2)cc1F` (stereo not drawn), the “activity change, negative = inhibition” value was inactive: 4.88%. With `CCOC(=O)c1[nH]c(C)c(C(=O)OCC(=O)N2CCCCC2C)c1C` (stereo not drawn) the activity change, negative = inhibition was inconclusive: 14%. In the case of `CCOC(=O)c1c(C)oc2c1c1c(c3ccccc32)OCN(CCCC(=O)O)C1`, the activity change, negative = inhibition is reported as inconclusive: 0.835%. With `N#Cc1ccccc1OCC(=O)NC(=O)NCc1ccccc1` the Potency was inconclusive: 12.6 µM [falling, partial curve]. With `CCOC(=O)N1CCN(C(=O)c2nn(C)c3c2CSc2ccccc2-3)CC1` the activity change, negative = inhibition was inconclusive: 6.41%. In the case of `CCC(NC(=O)Cc1c(C)c2c(cc(C)c3c(C)c(C)oc32)oc1=O)C(=O)O` (stereo not drawn), the activity change, negative = inhibition is reported as inconclusive: -30%. In the case of `Cc1noc(C)c1C(=O)OCC(=O)Nc1cccc(S(=O)(=O)N(C)C)c1`, the Potency is reported as inconclusive: 5.17 µM [falling, partial curve]. In the case of `O=C(N/N=C/c1ccc[nH]1)c1c[nH]c2ccccc12`, the Potency is reported as inconclusive: 31.6 µM [rising, single point]. With `CCC(C(=O)OCC(=O)N1C(C)CCCC1C)c1ccccc1` (stereo not drawn) the “activity change, negative = inhibition” value was inactive: 6.45%. In the case of `O=C1C(Nc2ccccc2)=CC(c2ccc(O)cc2)N1c1ccccc1` (stereo not drawn), the Potency is reported as inconclusive: 22.4 µM [falling, single point]. With `CCC(NC(=S)NC1CCCCC1)c1ccc(C(C)C)cc1` (stereo not drawn) the activity change, negative = inhibition was inconclusive: -9.31%. For `O=C(CCC(=O)OCc1ccc(C(=O)Oc2ccc(Cl)cc2)cc1)Nc1ccccc1`, the activity change, negative = inhibition was inconclusive: 14.9%. For `O=C(Nc1cccc2cccnc12)c1ccc(F)cc1`, the Potency was inconclusive: 14.1 µM [falling, partial curve]. For `CN(C)CCNC(=O)c1ccc2c(c1)NC(=O)c1ccccc1S2`, the activity change, negative = inhibition was inconclusive: -15.3%. With `O=C(COc1ccc(S(=O)(=O)NC2CCCCC2)cc1)Nc1ccc2c(c1)OCCO2` the Potency was inconclusive: 20 µM [falling, single point]. For `O=C(CSc1ccccc1)NCc1ccc2c(c1)CCN2C(=O)c1ccc(F)cc1`, the “activity change, negative = inhibition” value was inactive: 7.63%. For `Cc1onc(CO)c1C(=O)Nc1nccs1`, the activity change, negative = inhibition was inconclusive: 21.9%. For `COc1cc(C2C(C#N)=C(N)OC3=C2C(=O)CC(C)(C)C3)cc([N+](=O)[O-])c1O` (stereo not drawn), the activity change, negative = inhibition was inconclusive: 15.7%. With `CSc1ccccc1C(=O)Nc1ccc(C)c(C)c1` the Potency was inconclusive: 16.4 µM [falling, single point]. For `O=C(Cc1ccccc1)N(Cc1cccnc1)c1nc2ccc(F)cc2s1`, the activity change, negative = inhibition was inconclusive: -0.311%. For `CCN(CC(=O)NC(=O)NCc1ccccc1)Cc1nc2ccccc2c(=O)[nH]1`, the Potency was inconclusive: 25.1 µM [falling, partial curve, poor fit]. With `CCC(C)N1C(=O)S/C(=C/c2ccc(N3CCOCC3)cc2C)C1=O` (stereo not drawn) the activity change, negative = inhibition was inconclusive: 9.23%. With `Cc1ccc(CNC(=O)CCC(=O)N2CC(C)Oc3ccc(Cl)cc32)cc1` (stereo not drawn) the “activity change, negative = inhibition” value was inactive: 13%.
